# Laboratory results: PubChem BioAssay AID1671195 (Yale University, 2021)
# Screen: 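Genes whose knockdown alters LDL uptake in liver cancer cells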 (primary screen)
# Cell system: human Huh7 hepatoma cells
# Reagent: siRNA pool against human genes, 18 nM
# Timing: about 2 to 2.5 days of knockdown, then 8 h LDL uptake
# Challenge: DiI-labelled LDL at 30 µg/ml for 8 h, in lipoprotein-deficient serum medium
# Measurement: 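Fluorescent LDL signal imaged in cells, scaled to the plate median, robust z-score for each replicate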
# Reading the numbers: robust z-score: higher = more LDL uptake after knockdown
# Active means: 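a gene counts as active if at least two replicate z-scores exceed ±2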
# Here is a random part of about 22,000 deposited reagents. Of all reagents, about 1,510 (6.9%) are marked active. 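Active includes knockdowns raising or lowering LDL uptake; positive z-scores mean more uptake, negative mean less.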 Reagents against one gene are numbered here.
target gene,reagent no.,"robust z-score, replicate 1","robust z-score, replicate 2","robust z-score, replicate 3",outcome
DNAJC5 (DnaJ heat shock protein family (Hsp40) member C5),1,-0.469,-0.496,-0.734,inactive
SLC39A4,1,-1.52,-1.01,-1.03,inactive
SYNE2 (spectrin repeat containing nuclear envelope protein 2),1,-0.247,-0.268,-0.402,inactive
LOC441839 (retired record),1,-1.35,-1.31,-1.25,inactive
CBLL1 (Cbl proto-oncogene like 1),1,-0.143,-1.09,-1.13,inactive
ALPK2 (alpha kinase 2),1,-1.51,-1.91,-1.46,inactive
TPRG1 (tumor protein p63 regulated 1),1,-0.62,0.0763,-0.193,inactive
ADGRA3 (adhesion G protein-coupled receptor A3),1,-0.505,0.88,0.155,inactive
LOC387915 (retired record),1,2.36,2.09,2.81,active
LOC387870 (retired record),1,0.424,0.522,0.224,inactive
SUB1 (SUB1 regulator of transcription),1,-0.867,-1.07,-1.29,inactive
FN3K (fructosamine 3 kinase),1,-0.452,-0.145,-0.0559,inactive
DHX36 (DEAH-box helicase 36),1,-1.05,-0.47,-1.06,inactive
LSG1 (large 60S subunit nuclear export GTPase 1),1,1.13,-1.58,-0.153,inactive
LOC441385 (retired record),1,0.558,0.805,0.776,inactive
PTF1A (pancreas associated transcription factor 1a),1,-0.791,1.05,-0.499,inactive
ARL9 (ARF like GTPase 9),1,-0.903,0.823,-0.124,inactive
CPSF4 (cleavage and polyadenylation specific factor 4),1,1.49,0.371,1.08,inactive
AP5B1 (adaptor related protein complex 5 subunit beta 1),1,-0.784,-0.83,-0.646,inactive
PPP4R4 (protein phosphatase 4 regulatory subunit 4),1,-0.476,-0.352,-0.394,inactive
DTX3L (deltex E3 ubiquitin ligase 3L),1,-0.809,-0.744,-0.809,inactive
RAD9A (RAD9 checkpoint clamp component A),1,0.526,-1.11,0.602,inactive
EEF1D (eukaryotic translation elongation factor 1 delta),1,-0.359,0.746,0.0457,inactive
PEDS1 (plasmanylethanolamine desaturase 1),1,0.629,0.33,0.397,inactive
ACSL5 (acyl-CoA synthetase long chain family member 5),1,-1.07,-0.579,-0.963,inactive
DCANP1 (dendritic cell associated nuclear protein 1),1,-0.579,-1.02,-0.00792,inactive
THRAP3 (thyroid hormone receptor associated protein 3),1,-0.71,1.06,-0.817,inactive
ARL13B (ARF like GTPase 13B),1,-0.348,0.0553,-0.515,inactive
LOC442130 (retired record),1,-1.04,-1.32,-1.13,inactive
MDGA1 (MAM domain containing glycosylphosphatidylinositol anchor 1),1,-0.982,-0.887,-0.923,inactive
KRTAP19-2 (keratin associated protein 19-2),1,0.092,-0.139,-0.165,inactive
KIAA1614,1,-0.405,-0.628,-1.58,inactive
ZBTB9 (zinc finger and BTB domain containing 9),1,1.33,1.96,1.82,inactive
TAGLN2 (transgelin 2),1,-0.618,-0.657,-1.71,inactive
KCNE3,1,-2.16,-2.28,-1.83,active
CYP4V2 (cytochrome P450 family 4 subfamily V member 2),1,-0.141,0.161,0.796,inactive
SYF2 (SYF2 pre-mRNA splicing factor),1,-1.35,-1.15,-1.9,inactive
FANCE (FA complementation group E),1,0.505,1.6,1.38,inactive
LOC441068 (retired record),1,-0.185,-0.195,-0.495,inactive
XAGE5 (X antigen family member 5),1,0.722,0.865,1.11,inactive
MEX3D (mex-3 RNA binding family member D),1,-0.977,-1.17,-1.41,inactive
BROX (BRO1 domain and CAAX motif containing),1,-0.424,-0.00745,-0.622,inactive

Individual results from the list:
Entry for ARL13B (ARF like GTPase 13B) under “robust z-score, replicate 2”: 0.0553
FN3K (fructosamine 3 kinase), robust z-score, replicate 3 = -0.0559
ALPK2 (alpha kinase 2), outcome = inactive
Under “robust z-score, replicate 3”, KRTAP19-2 (keratin associated protein 19-2) has -0.165
Entry for SYNE2 (spectrin repeat containing nuclear envelope protein 2) under “robust z-score, replicate 3”: -0.402
KIAA1614, robust z-score, replicate 1 = -0.405

The listing continues:
target gene,reagent no.,"robust z-score, replicate 1","robust z-score, replicate 2","robust z-score, replicate 3",outcome
DNAH7 (dynein axonemal heavy chain 7),1,-1.5,-1.34,-0.509,inactive
TCAP (titin-cap),1,1.06,1.56,1.97,inactive
HYAL2 (hyaluronidase 2),1,0.815,0.907,1.45,inactive
TTLL11 (tubulin tyrosine ligase like 11),1,0.433,0.519,1.43,inactive
TTLL11 (tubulin tyrosine ligase like 11),2,-1.07,0.147,1.26,inactive
NDUFAF2 (NADH:ubiquinone oxidoreductase complex assembly factor 2),1,-0.631,-1.25,-0.638,inactive
ZFAND2B (zinc finger AN1-type containing 2B),1,0.871,1.22,1,inactive
OMG (oligodendrocyte myelin glycoprotein),1,-2.08,-1.99,-1.89,active
LOC441283 (retired record),1,0.0909,-0.304,-0.48,inactive
AFAP1L1 (actin filament associated protein 1 like 1),1,-0.65,-0.522,-0.0399,inactive
HSPB2 (heat shock protein family B (small) member 2),1,1.9,2.06,1.94,active
PRM3 (protamine 3),1,-1.21,-0.858,-0.662,inactive
EIF2S3 (eukaryotic translation initiation factor 2 subunit gamma),1,0.64,0.323,0.637,inactive
ASPNAT (aspartate N-acetyltransferase),1,0.412,0.194,0.946,inactive
TM4SF19 (transmembrane 4 L six family member 19),1,-1.34,-1.35,-1.22,inactive
GUCA2A (guanylate cyclase activator 2A),1,-1.22,0.00619,-0.726,inactive
ANKRD30BL (ankyrin repeat domain 30B like),1,-0.184,-0.536,-0.418,inactive
BLOC1S6 (biogenesis of lysosomal organelles complex 1 subunit 6),1,1.22,1.88,1.25,inactive
PRELID2 (PRELI domain containing 2),1,2.17,2.96,2.6,active
TTN (titin),1,0.614,0.0121,-0.0381,inactive
SSBP4 (single stranded DNA binding protein 4),1,0.617,0.886,0.468,inactive
LOC441836 (retired record),1,-1.41,-1.45,-1.62,inactive
DNMT3L (DNA methyltransferase 3 like),1,0.378,-0.0441,0.118,inactive
TRAF2 (TNF receptor associated factor 2),1,0.786,-0.314,0.477,inactive
MLC1 (modulator of VRAC current 1),1,-0.301,0.739,0.842,inactive
"MCL1 (MCL1 apoptosis regulator, BCL2 family member)",1,-1.2,-1.49,-0.872,inactive
